Results reported in article PMC10617981 (2023).
No constants are given. Whether binding was seen depends on the method and setting. In cells and extracts the contact can be indirect. Some entries that bind do so weakly or less than the wild type.

Sequences of proteins named here, by UniProt entry; tags and fusion partners are left off. A change or cut given only in a name is not applied to a line headed by its entry. A line that says so, or that is headed by a name, gives the form on record, which may keep a tag or linker.
UniProt Q7KZF4: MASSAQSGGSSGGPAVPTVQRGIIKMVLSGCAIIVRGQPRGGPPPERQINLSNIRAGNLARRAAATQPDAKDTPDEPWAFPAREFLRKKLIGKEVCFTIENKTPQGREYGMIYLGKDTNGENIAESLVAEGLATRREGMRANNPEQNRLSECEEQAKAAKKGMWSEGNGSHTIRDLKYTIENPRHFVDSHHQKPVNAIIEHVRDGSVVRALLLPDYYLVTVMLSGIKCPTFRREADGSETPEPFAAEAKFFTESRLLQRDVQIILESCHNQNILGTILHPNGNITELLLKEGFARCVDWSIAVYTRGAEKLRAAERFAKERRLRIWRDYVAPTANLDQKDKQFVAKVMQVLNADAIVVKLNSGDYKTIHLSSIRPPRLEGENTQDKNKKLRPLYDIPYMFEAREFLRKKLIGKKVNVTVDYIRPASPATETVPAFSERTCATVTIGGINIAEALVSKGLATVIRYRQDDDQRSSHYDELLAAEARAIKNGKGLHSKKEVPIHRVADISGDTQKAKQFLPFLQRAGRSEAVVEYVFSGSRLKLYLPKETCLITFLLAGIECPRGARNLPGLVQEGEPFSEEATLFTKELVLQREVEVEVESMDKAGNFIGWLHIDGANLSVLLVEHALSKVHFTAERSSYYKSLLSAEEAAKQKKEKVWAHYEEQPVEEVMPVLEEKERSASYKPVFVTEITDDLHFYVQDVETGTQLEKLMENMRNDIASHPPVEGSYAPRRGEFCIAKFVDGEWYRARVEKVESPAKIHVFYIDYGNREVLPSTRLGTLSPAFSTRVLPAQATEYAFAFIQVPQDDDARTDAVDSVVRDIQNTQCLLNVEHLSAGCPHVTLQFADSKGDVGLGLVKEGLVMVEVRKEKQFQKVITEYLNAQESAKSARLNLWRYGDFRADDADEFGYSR
SND1-FLAG with the SNase 3 domain deleted (SN3: 341-496 removed) (Q7KZF4, form named): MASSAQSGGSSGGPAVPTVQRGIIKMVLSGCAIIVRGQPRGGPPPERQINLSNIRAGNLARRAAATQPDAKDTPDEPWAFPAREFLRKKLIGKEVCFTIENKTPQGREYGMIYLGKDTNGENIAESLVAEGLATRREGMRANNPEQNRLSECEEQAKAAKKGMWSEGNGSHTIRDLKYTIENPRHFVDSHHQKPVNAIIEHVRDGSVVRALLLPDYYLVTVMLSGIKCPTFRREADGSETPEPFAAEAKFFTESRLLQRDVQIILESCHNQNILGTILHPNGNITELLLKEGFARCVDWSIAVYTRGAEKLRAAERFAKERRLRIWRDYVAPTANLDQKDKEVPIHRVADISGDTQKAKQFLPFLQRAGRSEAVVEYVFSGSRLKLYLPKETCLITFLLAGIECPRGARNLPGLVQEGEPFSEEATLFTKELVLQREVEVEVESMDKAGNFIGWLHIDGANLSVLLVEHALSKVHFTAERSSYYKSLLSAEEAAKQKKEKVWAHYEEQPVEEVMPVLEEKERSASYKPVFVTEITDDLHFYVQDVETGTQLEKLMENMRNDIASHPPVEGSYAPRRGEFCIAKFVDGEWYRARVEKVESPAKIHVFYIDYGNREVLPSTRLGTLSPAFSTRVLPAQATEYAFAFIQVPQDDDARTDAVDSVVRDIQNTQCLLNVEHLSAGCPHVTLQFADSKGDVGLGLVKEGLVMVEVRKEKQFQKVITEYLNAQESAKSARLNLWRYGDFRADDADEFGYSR

Tests used:
[1] = target: SND1-FLAG (full-length SND1 with a single C-terminal Flag tag) (human) (UniProt Q7KZF4); experiment: co-IP; […]; 50 mM Tris-HCl pH 7.5, 150 mM NaCl, 1% Triton-X 100; […]
[2] = target: staphylococcal nuclease domain-containing protein 1 (SND1), endogenous (human (endogenous in A549^ACE2)) (UniProt Q7KZF4); experiment: proximity ligation
[3] = target: NSP9-V5 (SARS-CoV-2) (UniProt P0DTD1); experiment: co-IP

Substance | binding [3] | also measured
NSP9-V5 (from UniProt P0DTD1 4141-4253) |  | binding [1]: binds
SARS-CoV-2 NSP9 made during infection (from UniProt P0DTD1 4141-4253) |  | binding [2]: binds
SND1-FLAG (full-length SND1 with a single C-terminal Flag tag) (from UniProt Q7KZF4 1-910) | binds | 
SND1-FLAG with the SNase 3 domain deleted (SN3: 341-496 removed) (from UniProt Q7KZF4 1-910) | no binding | 
